PMC12436189
These are yes or no findings as the source states them, for the method shown. Binding seen in cells or lysates may run through a third protein. Binding can be weak; no strength is given.

Experiments:
[1] = target: MUC1 C-terminal subunit (MUC1-C) (human (endogenous in YCCEL1, SNU-719 and AGS)); test: co-IP; lysates of EBV-negative AGS cells transfected to express EBNA1 precipitated with anti-MUC1-C or a control IgG; precipitates immunoblotted
[2] = target: MUC1 C-terminal subunit (MUC1-C) (human (endogenous in YCCEL1, SNU-719 and AGS)); test: co-IP; YCCEL1 and SNU-719 cell lysates precipitated with anti-MUC1-C or a control IgG (Pierce Classic Magnetic Co-IP Kit); precipitates immunoblotted

binding [1]: binds
binding [2]: binds
B1: PLOD1 lysine hydroxylase (enzyme, UniProt Q02809 19-727)
chain: KGDAKPEDNLLVLTVATKETEGFRRFKRSAQFFNYKIQALGLGEDWNVEKGTSAGGGQKVRLLKKALEKHADKEDLVILFADSYDVLFASGPRELLKKFRQARSQVVFSAEELIYPDRRLETKYPVVSDGKRFLGSGGFIGYAPNLSKLVAEWEGQDSDSDQLFYTKIFLDPEKREQINITLDHRCRIFQNLDGALDEVVLKFEMGHVRARNLAYDTLPVLIHGNGPTKLQLNYLGNYIPRFWTFETGCTVCDEGLRSLKGIGDEALPTVLVGVFIEQPTPFVSLFFQRLLRLHYPQKHMRLFIHNHEQHHKAQVEEFLAQHGSEYQSVKLVGPEVRMANADARNMGADLCRQDRSCTYYFSVDADVALTEPNSLRLLIQQNKNVIAPLMTRHGRLWSNFWGALSADGYYARSEDYVDIVQGRRVGVWNVPYISNIYLIKGSALRGELQSSDLFHHSKLDPDMAFCANIRQQDVFMFLTNRHTLGHLLSLDSYRTTHLHNDLWEVFSNPEDWKEKYIHQNYTKALAGKLVETPCPDVYWFPIFTEVACDELVEEMEHFGQWSLGNNKDNRIQGGYENVPTIDIHMNQIGFEREWHKFLLEYIAPMTEKLYPGYYTRAQFDLAFVVRYKPDEQPSLMPHHDASTFTINIALNRVGVDYEGGGCRFLRYNCSIRAPRKGWTLMHPGRLTHYHEGLPTTRGTRYIAVSFVDP
